Data reported in paper PMC8384837.
Where a chain is given by its changes, count along the chain named. The list shows a part of the results. For some of these results: At the low end of the ranking the order means little.

Assays:
Settings in all cases: yeast three-hybrid, YBZ-1, SC-Leu-His + 0.5 mM 3-AT, 4 days
[1] = target: T1, PUM1 PUF domain R3-LSC C935L + R936S + Q939C (UniProt Q14671)
T1 sequence: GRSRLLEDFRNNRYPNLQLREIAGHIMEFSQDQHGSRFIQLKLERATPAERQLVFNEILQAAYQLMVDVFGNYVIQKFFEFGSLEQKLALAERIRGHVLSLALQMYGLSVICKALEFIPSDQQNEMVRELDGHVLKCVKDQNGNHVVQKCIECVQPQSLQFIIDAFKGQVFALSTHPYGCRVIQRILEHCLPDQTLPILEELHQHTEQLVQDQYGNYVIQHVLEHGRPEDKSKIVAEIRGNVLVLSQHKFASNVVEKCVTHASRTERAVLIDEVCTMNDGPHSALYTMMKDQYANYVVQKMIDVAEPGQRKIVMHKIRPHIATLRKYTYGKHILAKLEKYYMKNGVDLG

[2] = target: T2, PUM1 PUF domain R3-LSE C935L + R936S + Q939E (UniProt Q14671)
T2 sequence: T1 sequence with C112E

[3] = target: T3, PUM1 PUF domain R3-LSG C935L + R936S + Q939G (UniProt Q14671)
T3 sequence: T1 sequence with C112G

[4] = target: T4, PUM1 PUF domain R3-LSR C935L + R936S + Q939R (Homo sapiens) (UniProt Q14671)
T4 sequence: T1 sequence with C112R

[5] = target: T5, PUM1 PUF domain R3-LSS C935L + R936S + Q939S (UniProt Q14671)
T5 sequence: T1 sequence with C112S

[6] = target: T6, PUM1 PUF domain R3-LSV C935L + R936S + Q939V (UniProt Q14671)
T6 sequence: T1 sequence with C112V

[7] = target: T7, PUM1 PUF domain R3-LWA C935L + R936W + Q939A (UniProt Q14671)
T7 sequence: T1 sequence with S109W, C112A

[8] = target: T8, PUM1 PUF domain R3-LWE C935L + R936W + Q939E (UniProt Q14671)
T8 sequence: T1 sequence with S109W, C112E

[9] = target: T9, PUM1 PUF domain R3-LWG C935L + R936W + Q939G (Homo sapiens) (UniProt Q14671)
T9 sequence: T1 sequence with S109W, C112G

[10] = target: T10, PUM1 PUF domain R3-LWI C935L + R936W + Q939I (UniProt Q14671)
T10 sequence: T1 sequence with S109W, C112I

[11] = target: T11, PUM1 PUF domain R3-LWL C935L + R936W + Q939L (UniProt Q14671)
T11 sequence: T1 sequence with S109W, C112L

[12] = target: T12, PUM1 PUF domain R3-LWN C935L + R936W + Q939N (UniProt Q14671)
T12 sequence: T1 sequence with S109W, C112N

[13] = target: T13, PUM1 PUF domain R3-LWR C935L + R936W + Q939R (Homo sapiens) (UniProt Q14671)
T13 sequence: T1 sequence with S109W, C112R

[14] = target: T14, PUM1 PUF domain R3-LWT C935L + R936W + Q939T (UniProt Q14671)
T14 sequence: T1 sequence with S109W, C112T

[15] = target: T15, PUM1 PUF domain R3-LYE C935L + R936Y + Q939E (Homo sapiens) (UniProt Q14671)
T15 sequence: T1 sequence with S109Y, C112E

[16] = target: T16, PUM1 PUF domain R3-LYG C935L + R936Y + Q939G (UniProt Q14671)
T16 sequence: T1 sequence with S109Y, C112G

[17] = target: T17, PUM1 PUF domain R3-LYM C935L + R936Y + Q939M (UniProt Q14671)
T17 sequence: T1 sequence with S109Y, C112M

[18] = target: T18, PUM1 PUF domain R3-LYR C935L + R936Y + Q939R (Homo sapiens) (UniProt Q14671)
T18 sequence: T1 sequence with S109Y, C112R

[19] = target: T19, PUM1 PUF domain R3-LYS C935L + R936Y + Q939S (UniProt Q14671)
T19 sequence: T1 sequence with S109Y, C112S

[20] = target: T20, PUM1 PUF domain R3-MCG C935M + R936C + Q939G (UniProt Q14671)
T20 sequence: T1 sequence with L108M, S109C, C112G

[21] = target: T21, PUM1 PUF domain R3-MPR C935M + R936P + Q939R (UniProt Q14671)
T21 sequence: T1 sequence with L108M, S109P, C112R

[22] = target: T22, PUM1 PUF domain R3-MRE C935M + Q939E (Homo sapiens) (UniProt Q14671)
T22 sequence: T1 sequence with L108M, S109R, C112E

[23] = target: T23, PUM1 PUF domain R3-MRG C935M + Q939G (UniProt Q14671)
T23 sequence: T1 sequence with L108M, S109R, C112G

[24] = target: T24, PUM1 PUF domain R3-MRL C935M + Q939L (UniProt Q14671)
T24 sequence: T1 sequence with L108M, S109R, C112L

[25] = target: T25, PUM1 PUF domain R3-MRT C935M + Q939T (UniProt Q14671)
T25 sequence: T1 sequence with L108M, S109R, C112T

[26] = target: T26, PUM1 PUF domain R3-MRY C935M + Q939Y (UniProt Q14671)
T26 sequence: T1 sequence with L108M, S109R, C112Y

[27] = target: T27, PUM1 PUF domain R3-MSN C935M + R936S + Q939N (UniProt Q14671)
T27 sequence: T1 sequence with L108M, C112N

[28] = target: T28, PUM1 PUF domain R3-MSR C935M + R936S + Q939R (UniProt Q14671)
T28 sequence: T1 sequence with L108M, C112R

[29] = target: T29, PUM1 PUF domain R3-MWP C935M + R936W + Q939P (UniProt Q14671)
T29 sequence: T1 sequence with L108M, S109W, C112P

[30] = target: T30, PUM1 PUF domain R3-MWS C935M + R936W + Q939S (UniProt Q14671)
T30 sequence: T1 sequence with L108M, S109W, C112S

[31] = target: T31, PUM1 PUF domain R3-NPR C935N + R936P + Q939R (Homo sapiens) (UniProt Q14671)
T31 sequence: T1 sequence with L108N, S109P, C112R

[32] = target: T32, PUM1 PUF domain R3-NPV C935N + R936P + Q939V (UniProt Q14671)
T32 sequence: T1 sequence with L108N, S109P, C112V

[33] = target: T33, PUM1 PUF domain R3-NSL C935N + R936S + Q939L (UniProt Q14671)
T33 sequence: T1 sequence with L108N, C112L

[34] = target: T34, PUM1 PUF domain R3-PFV C935P + R936F + Q939V (UniProt Q14671)
T34 sequence: T1 sequence with L108P, S109F, C112V

[35] = target: T35, PUM1 PUF domain R3-PHE C935P + R936H + Q939E (UniProt Q14671)
T35 sequence: T1 sequence with L108P, S109H, C112E

[36] = target: T36, PUM1 PUF domain R3-PHQ C935P + R936H (UniProt Q14671)
T36 sequence: T1 sequence with L108P, S109H, C112Q

[37] = target: T37, PUM1 PUF domain R3-PRE C935P + Q939E (UniProt Q14671)
T37 sequence: T1 sequence with L108P, S109R, C112E

[38] = target: T38, PUM1 PUF domain R3-PWG C935P + R936W + Q939G (UniProt Q14671)
T38 sequence: T1 sequence with L108P, S109W, C112G

[39] = target: T39, PUM1 PUF domain R3-PWH C935P + R936W + Q939H (UniProt Q14671)
T39 sequence: T1 sequence with L108P, S109W, C112H

[40] = target: T40, PUM1 PUF domain R3-PWL C935P + R936W + Q939L (UniProt Q14671)
T40 sequence: T1 sequence with L108P, S109W, C112L

GGCUAGAACUAGUGGAUCCCCCGGCGCCCGGCGGCUCGAGCCCGGGUAAGUGUAACUAGUCUGCAUGCCGCCGGGCGCCAUGCCUGCAGGUCGACUCUAGAAAACAUG
binding signal (log2 enrichment (interaction score)) [1]: < -7.34
binding signal (log2 enrichment (interaction score)) [2]: < -8.38
binding signal (log2 enrichment (interaction score)) [3]: -6.25
binding signal (log2 enrichment (interaction score)) [4]: -2.83
binding signal (log2 enrichment (interaction score)) [5]: -8.09
binding signal (log2 enrichment (interaction score)) [6]: -6.96
binding signal (log2 enrichment (interaction score)) [7]: -5.96
binding signal (log2 enrichment (interaction score)) [8]: < -6.4
binding signal (log2 enrichment (interaction score)) [9]: -0.21
binding signal (log2 enrichment (interaction score)) [10]: < -7.4
binding signal (log2 enrichment (interaction score)) [11]: < -9.42
binding signal (log2 enrichment (interaction score)) [12]: < -6.95
binding signal (log2 enrichment (interaction score)) [13]: -1.34
binding signal (log2 enrichment (interaction score)) [14]: < -7.23
binding signal (log2 enrichment (interaction score)) [15]: -3.34
binding signal (log2 enrichment (interaction score)) [16]: -3.7
binding signal (log2 enrichment (interaction score)) [17]: < -8.28
binding signal (log2 enrichment (interaction score)) [18]: -0.04
binding signal (log2 enrichment (interaction score)) [19]: -6.57
binding signal (log2 enrichment (interaction score)) [20]: < -8.71
binding signal (log2 enrichment (interaction score)) [21]: < -6.44
binding signal (log2 enrichment (interaction score)) [22]: -1.73
binding signal (log2 enrichment (interaction score)) [23]: -6.34
binding signal (log2 enrichment (interaction score)) [24]: < -7.5
binding signal (log2 enrichment (interaction score)) [25]: < -7.81
binding signal (log2 enrichment (interaction score)) [26]: < -6.83
binding signal (log2 enrichment (interaction score)) [27]: -3.47
binding signal (log2 enrichment (interaction score)) [28]: < -9.99
binding signal (log2 enrichment (interaction score)) [29]: < -7.98
binding signal (log2 enrichment (interaction score)) [30]: < -7.31
binding signal (log2 enrichment (interaction score)) [31]: -1.91
binding signal (log2 enrichment (interaction score)) [32]: < -7.77
binding signal (log2 enrichment (interaction score)) [33]: < -8
binding signal (log2 enrichment (interaction score)) [34]: < -8.35
binding signal (log2 enrichment (interaction score)) [35]: -4.61
binding signal (log2 enrichment (interaction score)) [36]: -2.77
binding signal (log2 enrichment (interaction score)) [37]: < -8.19
binding signal (log2 enrichment (interaction score)) [38]: < -7.16
binding signal (log2 enrichment (interaction score)) [39]: < -8.1
binding signal (log2 enrichment (interaction score)) [40]: -4.02
